3 molecules from article PMC8358892 can be followed below.

Test [1] has as its target β‐catenin (mouse mesenteric vessels) (mouse (endogenous in mesenteric vessels of C57 mice)) (UniProt Q02248). In words: co-IP; mesenteric vessels of C57 mice given PBS or AGEs (10 mg/kg i.p., 7 days); blots of VE-cadherin, α-catenin and β-catenin; precipitating antibody not stated for this tissue.
The target in test [2] is T1, β‐catenin (human (endogenous in HUVEC)), P35222.
T1 chain: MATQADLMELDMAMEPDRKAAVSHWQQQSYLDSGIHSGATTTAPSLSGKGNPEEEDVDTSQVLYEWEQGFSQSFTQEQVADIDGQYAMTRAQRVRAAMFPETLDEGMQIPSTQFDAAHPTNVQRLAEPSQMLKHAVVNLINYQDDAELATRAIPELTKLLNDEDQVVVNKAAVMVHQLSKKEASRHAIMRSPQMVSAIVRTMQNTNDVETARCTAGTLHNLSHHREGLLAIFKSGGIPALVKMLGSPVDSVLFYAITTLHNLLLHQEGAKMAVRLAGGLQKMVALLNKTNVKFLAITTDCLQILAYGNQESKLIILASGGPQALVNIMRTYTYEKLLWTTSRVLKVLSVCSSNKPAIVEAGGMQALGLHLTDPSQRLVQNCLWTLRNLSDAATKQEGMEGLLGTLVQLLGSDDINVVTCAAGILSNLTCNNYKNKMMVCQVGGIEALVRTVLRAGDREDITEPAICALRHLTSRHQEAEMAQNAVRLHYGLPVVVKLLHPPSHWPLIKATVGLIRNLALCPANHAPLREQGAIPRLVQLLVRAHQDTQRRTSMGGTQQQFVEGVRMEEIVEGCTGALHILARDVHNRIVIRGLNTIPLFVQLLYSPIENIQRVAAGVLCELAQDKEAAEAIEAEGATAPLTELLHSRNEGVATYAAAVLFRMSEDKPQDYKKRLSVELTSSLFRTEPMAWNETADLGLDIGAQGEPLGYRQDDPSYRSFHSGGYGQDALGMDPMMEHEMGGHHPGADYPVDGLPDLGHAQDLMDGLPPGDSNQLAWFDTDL
In words: co-IP; HUVEC lysate (Cell Lysis Buffer for IP with protease and phosphatase inhibitors), β-catenin antibody overnight at 4°C, Protein A/G magnetic beads; cells with or without 100 μg/mL AGEs for 60 min, with or without Y654F plasmid. To be noted: remark: other sources report otherwise.

The target of test [3] is β‐catenin Y654 phospho‐deficient mutant (Y654F) (UniProt P35222). The test is described as above.

These are yes or no findings as the source states them, for the method shown. Binding seen in cells or lysates may run through a third protein. Some results given as binding are weak or reduced against the parent protein; the word gives no strength.

B1: VE‐cadherin (mouse mesenteric vessels) (protein, UniProt P55284 46-784)
chain: DWIWNQMHIDEEKNESLPHYVGKIKSNVNRQNAKYVLQGEFAGKIFGVDANTGNVLAYERLDREKVSEYFLTALIVDKNTNKNLEQPSSFTVKVHDINDNWPVFSHQVFNASVPEMSAIGTSVIRVTAVDADDPTVAGHATVLYQIVKGNEYFSIDNSGLIFTKIKNLDREKQAEYKIVVETQDALGLRGESGTATVMIRLEDINDNFPVFTQSTYTFSVPEDIRVGKPLGFLTVVDPDEPQNRMTKYSIMQGEYRDTFTIETDPKRNEGIIKPTKSLDYEVIQQYTFYIEATDPTIRYEYLSSTSGKNKAMVTINVLDVDEPPVFQRHFYHFKLPENQKKPLIGTVVAKDPDKAQRSIGYSIRKTSDRGQFFRITKQGNIYNEKELDRETYAWYNLTVEANELDSRGNPVGKESIVQVYIEVLDENDNPPEFAQPYEPKVCENAAQGKLVVQISATDKDVVPVNPKFKFALKNEDSNFTLINNHDNTANITVKYGQFNREHAKFHYLPVLISDNGVPSLTGTSTLTVGVCKCNEQGEFTFCEEMAAQAGVSIQALVAIFLCILTITVITLLIILRRRIRKQAHAHSKSALEIHEQLVTYDEEGGGEMDTTSYDVSVLNSVRGGSTKPLRSTMDARPAVYTQVQKPPRLAPGLHGGPREMATMIDVKKEEADNDGGGPPYDTLHIYGYEGAESIAESLSSLSTNSSDSDIDYDFLNDWGPRFKMLAELYGSDPQEELII
Turning to B1, the binding entry in test [1] is “binds”.

B2: Vascular endothelial (VE)‐cadherin, P33151 48-784 (protein)
chain: DWIWNQMHIDEEKNTSLPHHVGKIKSSVSRKNAKYLLKGEYVGKVFRVDAETGDVFAIERLDRENISEYHLTAVIVDKDTGENLETPSSFTIKVHDVNDNWPVFTHRLFNASVPESSAVGTSVISVTAVDADDPTVGDHASVMYQILKGKEYFAIDNSGRIITITKSLDREKQARYEIVVEARDAQGLRGDSGTATVLVTLQDINDNFPFFTQTKYTFVVPEDTRVGTSVGSLFVEDPDEPQNRMTKYSILRGDYQDAFTIETNPAHNEGIIKPMKPLDYEYIQQYSFIVEATDPTIDLRYMSPPAGNRAQVIINITDVDEPPIFQQPFYHFQLKENQKKPLIGTVLAMDPDAARHSIGYSIRRTSDKGQFFRVTKKGDIYNEKELDREVYPWYNLTVEAKELDSTGTPTGKESIVQVHIEVLDENDNAPEFAKPYQPKVCENAVHGQLVLQISAIDKDITPRNVKFKFILNTENNFTLTDNHDNTANITVKYGQFDREHTKVHFLPVVISDNGMPSRTGTSTLTVAVCKCNEQGEFTFCEDMAAQVGVSIQAVVAILLCILTITVITLLIFLRRRLRKQARAHGKSVPEIHEQLVTYDEEGGGEMDTTSYDVSVLNSVRRGGAKPPRPALDARPSLYAQVQKPPRHAPGAHGGPGEMAAMIEVKKDEADHDGDGPPYDTLHIYGYEGSESIAESLSSLGTDSSDSDVDYDFLNDWGPRFKMLAELYGSDPREELLY
As to B2, in test [2], the binding entry is given as “binds”.

B3: Vascular endothelial (VE)‐cadherin (protein, UniProt P33151 48-784)
chain: B2 chain
With B3, the binding entry in test [3] is “binds”.
